Assay results as given in US6482802B1 (Endowment for Research in Human Biology, Inc., priority 1998, dated 2002).
For at least one compound, name, drawing or mass did not settle the structure.

Columns and labels:
[1] = test system: HUVE cells; test: Angiogenin-induced proliferation of HUVE cells; assay type: cell-based, human; details: aminoglycoside 100 μM (Table 3)
Method: (§1) HUVE cells were seeded at 4×10^3 cells/cm^2 in attachment factor (Cell Systems Corp.)-coated 35 mm dishes in HE-SFM, and incubated with 1 μg/ml angiogenin in the presence or absence of inhibitors at 37° C. for 48 hr. Cell were detached by trypsinization and cell numbers were determined with a Coulter counter.

[2] = test system: HUVE cells; test: bFGF-induced proliferation of HUVE cells, aminoglycoside antibiotics; assay type: cell-based, human; details: aminoglycoside 100 μM
Method: as §1
The ability of the other members of the aminoglycoside antibiotic family to inhibit bFGF-induced proliferation of HUVE cells was examined in a similar manner as for angiogenin as described in Section 6.1.1.5, above. HUVE cells, passage 9, were seeded on attachment-factor coated dishes at 50,000 cells per 35 mm dish in HE-SFM. Aminoglycoside antibiotics were added and the cells were incubated with or without […] at 37° C. for 48 hr.

NC[C@H]1O[C@H](O[C@H]2[C@H](O)[C@@H](O[C@H]3O[C@H](CO)[C@@H](O)[C@H](N)[C@H]3O)[C@H](N)C[C@@H]2N)[C@H](O)[C@@H](O)[C@@H]1O [Kanamycin, kanamycin]
inhibition of angiogenin-induced cell proliferation [1]: None
significant inhibitory effect on cell proliferation induced by bFGF [2]: no
